Experimental data: PMC3335879, “Selective Inhibitors of Protozoan Protein N-myristoyltransferases as Starting Points for Tropical Disease Medicinal Chemistry Programs” (PLoS Neglected Tropical Diseases, 2012)

Tested on: L. donovani NMT
Format: biochemical
Conditions: selectivity for Ldon NMT over Pfal NMT derived from IC50 values
Experimental: Recombinant P. falciparum (Swiss-Prot Q81LW6) and L. donovani NMTs (EMBL accession number FN555136) were produced at the University of York, using established protocols. An assay format based on scintillation proximity technology to monitor enzyme activity was used as previously described, [30].
The Pfizer Global Diverse Representative Set consisting of 150,000 compounds was screened at 20 µM final assay concentration. Assay plates were prepared by dispensing 0.1 µL of compound dissolved in DMSO using the Vario system (Cybio) into white 384-well plates (Greiner Bio-One).
The reaction was initiated by adding 10 µL of the substrate mixture to each well containing the pre-incubated enzyme/compound mixture, and allowed to proceed at RT for 80 min. The reaction was quenched by the addition 20 µl of stop solution to each well. Stop solution consisted of 0.75 M MgCl2 (Sigma), 0.1 M phosphoric acid (Sigma) and 1 mg/ml of streptavidin-coated polystyrene SPA beads (Perkin-Elmer). Plates were sealed using topseals (Perkin-Elmer) and left overnight to allow the bead solution to settle. Radioactive counts were measured with an integration time of 300 sec per plate using the Leadseeker Generation 4 plate reader (GE Healthcare). […] The data were analysed using Pfizer SIGHTS software and visualised using Spotfire software (TIBCO).

## Cc1cc2nc(N(C)C3CCN(C)CC3)nc(N(C)CCC#N)c2s1 [PF-00349412]
  Ldon/Pfal Sel: 82
